# Data: US10751324B2, “Treatment of TNF- alpha cytotoxicity” (The University of Chicago, priority 2016, dated 2020)
# For at least one compound, name, drawing or mass did not settle the structure.
# Target: T1, IKKß (Mus musculus, UniProt O88351)
# T1 construct: Total cell lysate was prepared for western blotting analysis; endogenous in cells; host or cells: mouse embryonic fibroblasts (MEFs)
# T1 sequence (O88351 1-757): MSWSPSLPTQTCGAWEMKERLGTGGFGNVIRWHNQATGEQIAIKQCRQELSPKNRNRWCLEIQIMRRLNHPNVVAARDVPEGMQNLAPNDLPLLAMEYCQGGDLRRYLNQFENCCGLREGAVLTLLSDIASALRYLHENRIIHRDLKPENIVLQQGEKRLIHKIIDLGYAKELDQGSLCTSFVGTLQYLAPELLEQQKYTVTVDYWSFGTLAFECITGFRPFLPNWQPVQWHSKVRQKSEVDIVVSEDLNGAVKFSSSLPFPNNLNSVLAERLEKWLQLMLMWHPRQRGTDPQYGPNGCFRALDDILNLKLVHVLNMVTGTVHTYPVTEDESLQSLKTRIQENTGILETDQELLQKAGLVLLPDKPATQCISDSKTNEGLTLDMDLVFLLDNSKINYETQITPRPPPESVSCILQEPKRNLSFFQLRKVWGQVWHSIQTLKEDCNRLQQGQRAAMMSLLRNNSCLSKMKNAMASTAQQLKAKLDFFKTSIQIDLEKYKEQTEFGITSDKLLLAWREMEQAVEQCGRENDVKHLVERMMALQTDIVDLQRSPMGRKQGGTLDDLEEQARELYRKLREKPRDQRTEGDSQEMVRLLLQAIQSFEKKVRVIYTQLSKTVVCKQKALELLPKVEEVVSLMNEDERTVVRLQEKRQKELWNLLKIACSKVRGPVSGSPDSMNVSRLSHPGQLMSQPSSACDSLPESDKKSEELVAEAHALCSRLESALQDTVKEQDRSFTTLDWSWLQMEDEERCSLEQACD
# Experiment: IKKß phosphorylation by immunoblotting in TNFα-treated MEFs ("in vitro kinase assay")
# Format: cell-based
# Conditions: MEFs pre-treated with different doses for 1 hour, then cytotoxic TNFα 15 min; immunoblot, FIG. 17
smiles,measurement,value
CN1CCN(CCOc2cc(OC3CCOCC3)c3c(Nc4c(Cl)ccc5c4OCO5)ncnc3c2)CC1 [saracatinib],IKK phosphorylation,do not inhibit
